For assay [1], the target named is T1, Flag-Roc1b (Drosophila melanogaster) (UniProt Q9NHX0).
T1 sequence: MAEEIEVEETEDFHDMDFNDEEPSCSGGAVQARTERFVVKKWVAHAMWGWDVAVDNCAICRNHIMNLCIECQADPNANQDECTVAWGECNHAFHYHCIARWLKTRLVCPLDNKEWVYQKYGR
Description: co-IP; tagged Roc protein or RING-swap chimera immunoprecipitated (anti-FLAG for the FLAG-Roc proteins) from transgenic embryo extracts (0-16 h; NP-40 lysis buffer: 50 mM Tris pH 8.3, 150 mM NaCl, 0.5% NP-40), overnight at 4°C on protein-A beads; co-precipitating endogenous Cullins detected by immunoblot; Flag-Roc1a also tested in the Roc2^KG mutant background (Fig. 8).

The chains behind the UniProt entries cited, without tags or fusion partners. Where a name states a change or a piece, a line headed by the entry shows the natural chain unless it says otherwise.
UniProt Q7JWH5: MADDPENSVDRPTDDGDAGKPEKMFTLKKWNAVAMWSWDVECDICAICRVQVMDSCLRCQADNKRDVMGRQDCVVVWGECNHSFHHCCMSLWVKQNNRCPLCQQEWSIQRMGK
UniProt Q9W5E1: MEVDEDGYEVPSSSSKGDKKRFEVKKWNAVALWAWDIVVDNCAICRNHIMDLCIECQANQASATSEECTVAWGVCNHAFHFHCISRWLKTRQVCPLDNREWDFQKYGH
UniProt Q9V9R2: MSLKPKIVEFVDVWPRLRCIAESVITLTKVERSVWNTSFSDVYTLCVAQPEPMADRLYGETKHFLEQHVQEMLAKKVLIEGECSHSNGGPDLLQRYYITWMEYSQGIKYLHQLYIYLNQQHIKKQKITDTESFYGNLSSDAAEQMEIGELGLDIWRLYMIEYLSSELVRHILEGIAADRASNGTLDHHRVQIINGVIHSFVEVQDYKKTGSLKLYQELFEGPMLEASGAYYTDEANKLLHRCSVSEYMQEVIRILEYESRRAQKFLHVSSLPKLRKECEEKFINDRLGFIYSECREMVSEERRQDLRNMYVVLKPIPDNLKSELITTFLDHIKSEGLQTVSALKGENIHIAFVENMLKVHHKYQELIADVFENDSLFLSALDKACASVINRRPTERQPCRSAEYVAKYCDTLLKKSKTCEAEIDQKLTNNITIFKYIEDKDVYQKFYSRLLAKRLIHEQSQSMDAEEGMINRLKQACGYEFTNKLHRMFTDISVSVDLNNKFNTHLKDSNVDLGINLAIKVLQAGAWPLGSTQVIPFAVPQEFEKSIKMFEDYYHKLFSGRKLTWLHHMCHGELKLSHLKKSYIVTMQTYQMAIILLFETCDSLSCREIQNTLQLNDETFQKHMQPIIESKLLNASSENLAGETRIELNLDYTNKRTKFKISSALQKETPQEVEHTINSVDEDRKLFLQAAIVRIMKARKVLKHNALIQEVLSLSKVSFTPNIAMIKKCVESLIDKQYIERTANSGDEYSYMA
UniProt Q24311: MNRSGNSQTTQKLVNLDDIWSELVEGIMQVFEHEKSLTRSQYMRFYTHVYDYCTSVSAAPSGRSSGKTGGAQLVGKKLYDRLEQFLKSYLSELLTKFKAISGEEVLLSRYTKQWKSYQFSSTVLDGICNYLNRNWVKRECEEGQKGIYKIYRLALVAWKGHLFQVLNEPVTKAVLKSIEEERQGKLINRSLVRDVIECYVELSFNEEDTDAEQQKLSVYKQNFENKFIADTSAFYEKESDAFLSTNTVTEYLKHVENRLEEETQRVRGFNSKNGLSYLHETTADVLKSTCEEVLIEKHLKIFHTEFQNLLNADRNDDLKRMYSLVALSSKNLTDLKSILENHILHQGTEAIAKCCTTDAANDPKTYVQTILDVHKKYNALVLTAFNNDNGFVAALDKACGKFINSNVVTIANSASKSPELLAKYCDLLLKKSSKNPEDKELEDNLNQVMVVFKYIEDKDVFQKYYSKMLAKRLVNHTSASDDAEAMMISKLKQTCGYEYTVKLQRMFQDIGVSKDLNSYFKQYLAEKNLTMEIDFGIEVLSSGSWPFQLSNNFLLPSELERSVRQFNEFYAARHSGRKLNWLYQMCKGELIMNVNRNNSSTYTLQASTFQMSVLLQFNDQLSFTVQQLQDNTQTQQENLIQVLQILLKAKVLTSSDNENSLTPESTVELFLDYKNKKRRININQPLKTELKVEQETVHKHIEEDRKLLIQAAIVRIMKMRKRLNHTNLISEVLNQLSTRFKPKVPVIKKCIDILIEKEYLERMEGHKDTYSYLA

Assay [2] deals with Flag-Roc2 (Drosophila melanogaster) (UniProt Q7JWH5). The assay is described as above.
In assay [3] the target is Flag-Roc1a (Drosophila melanogaster) (UniProt Q9W5E1). The assay is described as above.
In assay [4] the target is T2, V5-Roc1b (control Roc1b construct) (Drosophila melanogaster) (UniProt Q9NHX0).
T2 sequence: T1 sequence
Nature of the assay: co-IP; V5-tagged Roc or chimera constructs transfected into S2 cells, lysates 48 h later, anti-V5 immunoprecipitation; endogenous Cul1, Cul3, Cul5 detected by immunoblot.

Five substances from publication PMC2500221 can be followed below.

No constants are given. Whether binding was seen depends on the method and setting. In cells and extracts the contact can be indirect. For some assays here: Binding calls can cover weak binding; strength is not graded here. For some assays here: Tags and fused reporters may be left off the sequences shown.

Regarding Cul4, in assay [1], the binding result is reported as “no binding”.
With Cul2 (from UniProt Q9V9R2), the binding result in assay [2] is recorded as “no binding”; in assay [1] it was “no binding”; in assay [3] it was “binds”.
For Cul5, in assay [1], the binding result is given as “no binding”.
Turning to Cul3, the binding entry in assay [4] and in assay [1] was “binds” throughout.
On to Cul1 (from UniProt Q24311 1-774), for which the binding result in assay [2] was “no binding”.
